The source of these data is article PMC7819943, “Rice protein-binding microarrays: a tool to detect cis-acting elements near promoter regions in rice”.

Protein sequences, listed by entry. Tags and fused reporters are not part of them.
UniProt Q0JBA9, entry or part of it: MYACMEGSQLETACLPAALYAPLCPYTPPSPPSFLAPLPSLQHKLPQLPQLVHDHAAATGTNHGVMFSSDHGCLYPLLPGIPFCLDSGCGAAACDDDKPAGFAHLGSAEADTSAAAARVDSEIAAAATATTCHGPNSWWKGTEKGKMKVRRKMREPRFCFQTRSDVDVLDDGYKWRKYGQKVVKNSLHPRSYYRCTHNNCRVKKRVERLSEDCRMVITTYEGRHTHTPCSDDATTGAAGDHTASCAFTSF

Some of the results follow.

The target of this assay is OsWRKY34 (Oryza sativa, UniProt Q0JBA9 1-250). Briefly: protein-binding microarray (RPBM); PBS, 2% BSA, 51.3 ng/ul salmon testes DNA, 50 uM zinc acetate, 200 nM TF, 25 C, 1 h; high values mean tight binding. As to conditions: protein: recombinant; tags: N-terminal polyhistidine and DsRed monomer fusion (pET32a); label: CyDye5-dUTP incorporated in the synthesized complementary strand; 3' TTTTT single-stranded linker to array surface; dsDNA, one strand shown. An outline of the steps:
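A custom Agilent array was converted to double-stranded form by primer extension with Cy5-dUTP and blocked with 2% BSA. Protein at 200 nM in PBS with 2% BSA, salmon testes DNA and 50 µM zinc acetate was applied for 1 h at 25 °C, followed by washing. The proteins were polyhistidine–DsRed N-terminal fusions of transcription factors, expressed in E. coli BL21-CodonPlus and Ni–NTA-purified. The binding signal is per-feature fluorescence intensity (arbitrary units) from an Axon 4000B scanner.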
In the case of “TGTAGCTCAATTCTTCTGCCAGTCTTCCGAAGCCCAACATCGGAGTCACCTAGTGCAG”, the binding signal is 8030 fluorescence intensity (a.u.).

As for “CCTCCTCGACGTCGCCTCCTCCCTCTTCGTCGACACCTCACGGAGTCACCTAGTGCAG”, the binding signal was 8690 fluorescence intensity (a.u.).

On to “CTTTAAACAGTTTGAGTGAATTTAGGGGTACATATTTCTGCGGAGTCACCTAGTGCAG”, for which the binding signal was 8850 fluorescence intensity (a.u.).

With “GGACTCTGTTTTTTCTTTTTCTCCGATTAATGTGAGAATTCGGAGTCACCTAGTGCAG”, the binding signal was 8120 fluorescence intensity (a.u.).

Regarding “GCCGCCACCACTTAGCCTCGCCGCCAGCTGCCTCCCCGCTCGGAGTCACCTAGTGCAG”, the binding signal was 11900 fluorescence intensity (a.u.).

As for “GAATTTGTTTCCACGACCTCTATTTTACTGAAATAACATGCGGAGTCACCTAGTGCAG”, the binding signal is 9590 fluorescence intensity (a.u.).

As to “TTTCTCATTTCATGTGTGGCTATTGGCTAATTAGCCATTTCGGAGTCACCTAGTGCAG”, the binding signal was 11500 fluorescence intensity (a.u.).

As for “AGACTTTCCCAAGCCAGTTAGTTGACCATGACTTTTTCTCCGGAGTCACCTAGTGCAG”, the binding signal was 11100 fluorescence intensity (a.u.).

Take “GCCTCCACCGCGGCGCGCGCCCACACACACACACACACTCCGGAGTCACCTAGTGCAG”: the binding signal is 10700 fluorescence intensity (a.u.).

Turning to “AGTGTTTGGTTTGAGGAGGACTAGTGGGGTGGTTTTTTGACGGAGTCACCTAGTGCAG”, the binding signal was 13900 fluorescence intensity (a.u.).

With “CGATCCGACGTCCTCTGCTCCTGCCTCCGCTCCGCTGCTTCGGAGTCACCTAGTGCAG”, the binding signal was 10100 fluorescence intensity (a.u.).

As for “ACAGCCTGTATTAGTTTTTCTTACATTTTTTCAGCTGATACGGAGTCACCTAGTGCAG”, the binding signal was 8180 fluorescence intensity (a.u.).

For the sequence “GGGGTTTGCTATTCTGGCTCTCTATTAAGCTCATAAAAAACGGAGTCACCTAGTGCAG”, the binding signal is 23500 fluorescence intensity (a.u.).

In the case of “ATCCCTCATCACCGTCGTCTACCTCCCACCCTCTCTCTCTCGGAGTCACCTAGTGCAG”, the binding signal is 8450 fluorescence intensity (a.u.).

As to “CGCCCATGCGAGGACGCAGCCATCCATCCATCCACCCAGCCGGAGTCACCTAGTGCAG”, the binding signal was 8720 fluorescence intensity (a.u.).

With “GTATTGCTGGGGTCGATGTCTTCATTGTGAAGTGCTGATACGGAGTCACCTAGTGCAG”, the binding signal is 13100 fluorescence intensity (a.u.).

For “AACGCGCACACATTACGCTATAAATATACACACATCCTACCGGAGTCACCTAGTGCAG”, the binding signal was 9070 fluorescence intensity (a.u.).

In the case of “CACCGTGTCGCTCTCTCTCGTCGTCTCCGCCTCCGGCTTCCGGAGTCACCTAGTGCAG”, the binding signal was 19600 fluorescence intensity (a.u.).

“GCACTTTCTCATAATGAACTATAGAGACGTGGAGTTGGGTCGGAGTCACCTAGTGCAG”: the binding signal is 8460 fluorescence intensity (a.u.).

Consider “GGAGGCGGTGGTGGTATTCGGAGGCGAGCAGCTTGAGGCGCGGAGTCACCTAGTGCAG”, for which the binding signal is 9370 fluorescence intensity (a.u.).

With “ATAATGCTCTTGCCTCCTCGCCAACCAAGCCGCACACACCCGGAGTCACCTAGTGCAG”, the binding signal is 8270 fluorescence intensity (a.u.).

In the case of “AGTAGTCTCCGTCTTCGTCCTCTTCCTTCTTGTTTAATAACGGAGTCACCTAGTGCAG”, the binding signal is 8930 fluorescence intensity (a.u.).

Consider “ATTTACGTCATCATTTCGTGTATCATTTCTCTCGATGATTCGGAGTCACCTAGTGCAG”, for which the binding signal is 9820 fluorescence intensity (a.u.).

Turning to “TGCTTAACTTCTATGATTTACCATCGCCGTCCAGTTAGTCCGGAGTCACCTAGTGCAG”, the binding signal was 9830 fluorescence intensity (a.u.).

For the sequence “CTCAACCCGTCGCTCACCATCGCCTTCGCCGCGCTCCGCCCGGAGTCACCTAGTGCAG”, the binding signal is 10100 fluorescence intensity (a.u.).

On to “ATCTCACCACCCAACCCGTTCGGATTAGATAGCCCGCTTCCGGAGTCACCTAGTGCAG”, for which the binding signal was 8280 fluorescence intensity (a.u.).

For the sequence “ATATAATTTCTTACTTTCTCAGATGTGTCCTTATTCATGTCGGAGTCACCTAGTGCAG”, the binding signal is 9380 fluorescence intensity (a.u.).

Turning to “TGCTCCAACTGCCAAGTACTAGTCGCTGCGGTCACTCTGTCGGAGTCACCTAGTGCAG”, the binding signal is 8240 fluorescence intensity (a.u.).

With “TCTCTCACATAGGTTATTGGATTTCGTGTTGTAGCCGGCTCGGAGTCACCTAGTGCAG”, the binding signal is 9940 fluorescence intensity (a.u.).

With “GCAGTCGGTTCGCGTTTGTTTTTTTTCTTTCTTTCTTTTTCGGAGTCACCTAGTGCAG”, the binding signal was 18400 fluorescence intensity (a.u.).

For “CTAGCCGTGTCCGCCTCTGCCACGCCACCACGACACGAGTCGGAGTCACCTAGTGCAG”, the binding signal is 8200 fluorescence intensity (a.u.).

Consider “CTGTACAATTTTTTGTTTCCGGTAGACCATCAGCACTTCACGGAGTCACCTAGTGCAG”, for which the binding signal is 8880 fluorescence intensity (a.u.).

Consider “ATATATAAAGTTTTTAGACCGTTCTGTTTAGGGGCCGGGGCGGAGTCACCTAGTGCAG”, for which the binding signal was 10800 fluorescence intensity (a.u.).

With “GTATTTCTATATGGACTCTGTCTTTTCTTTTCTCCGATTACGGAGTCACCTAGTGCAG”, the binding signal is 9860 fluorescence intensity (a.u.).

“CCCCGCCGCCGCCGCCGCCGCCTCGCCTCCGTTGCAACCGCGGAGTCACCTAGTGCAG”: the binding signal is 8450 fluorescence intensity (a.u.).

With “ATATAAGATGACAAAGTAGTAGTTGTATTCTCAATTTATACGGAGTCACCTAGTGCAG”, the binding signal is 10700 fluorescence intensity (a.u.).

For “TTTGCTTCTCTGAAAATTGTCTTGTTCTCTCCAGGTTCCACGGAGTCACCTAGTGCAG”, the binding signal is 8310 fluorescence intensity (a.u.).

As to “GCTTTGATCATAGATGGTTTGCTGCGATTTGTAGGGTAGCCGGAGTCACCTAGTGCAG”, the binding signal was 8140 fluorescence intensity (a.u.).

As for “ATTTTATATGATTGCTCTTTTTTAATTTTTTTTTTGCTATCGGAGTCACCTAGTGCAG”, the binding signal was 9080 fluorescence intensity (a.u.).

For the sequence “CCTATAAGAGTTCAAATCCCATCCGATATTGCCTTTTTTTCGGAGTCACCTAGTGCAG”, the binding signal was 8510 fluorescence intensity (a.u.).

Take “CTGCCTTCCGTGCGCGGTCCTTCGGCTCTACTTGGATGCTCGGAGTCACCTAGTGCAG”: the binding signal was 9890 fluorescence intensity (a.u.).

As for “AAGTCTCTAGTCATGATACTCCCGGTCCCATGTCACCGACCGGAGTCACCTAGTGCAG”, the binding signal was 8100 fluorescence intensity (a.u.).

“GAGGTCTACTGTTATTGGGGATTCTTTTTGGGTGGGGTGGCGGAGTCACCTAGTGCAG”: the binding signal was 31300 fluorescence intensity (a.u.).

On to “ATTCACTTGATTTGGTTGCTGCTTTTTCTCCATTCTCGTTCGGAGTCACCTAGTGCAG”, for which the binding signal was 9090 fluorescence intensity (a.u.).

In the case of “ACGACCACGTCGCCGTCGCGCAACCCATCCATCCATCCATCGGAGTCACCTAGTGCAG”, the binding signal was 8280 fluorescence intensity (a.u.).

Take “TTTTCCTTTTTTTTCTTTTTTCCATATATATATATATATACGGAGTCACCTAGTGCAG”: the binding signal was 8610 fluorescence intensity (a.u.).

Turning to “ATTCAGATCCACCCGCGTCTTCTCTTCTCCCCTCTCGTCCCGGAGTCACCTAGTGCAG”, the binding signal is 8190 fluorescence intensity (a.u.).

On to “CGCTGCTGCTGACTTGTGGGCTCCCACGGCCTCTCCTGGTCGGAGTCACCTAGTGCAG”, for which the binding signal was 8110 fluorescence intensity (a.u.).

As for “GGAGTATATAAATATATATATTAAATACAACTCTAGACTACGGAGTCACCTAGTGCAG”, the binding signal was 26700 fluorescence intensity (a.u.).

For the sequence “TTTGGTGGTGTGCAAGTGGAGTGGTTTATAAAATTATGTCCGGAGTCACCTAGTGCAG”, the binding signal is 8980 fluorescence intensity (a.u.).

On to “CATTTGCAACGGAGCTCCTTACTCTACCTCGACTTGCAACCGGAGTCACCTAGTGCAG”, for which the binding signal is 9590 ± 186 fluorescence intensity (a.u.).

Regarding “CATTTGCATTTTGTAGTAGTTTTTGTTTTTATTTTGGCCCCGGAGTCACCTAGTGCAG”, the binding signal is 9760 fluorescence intensity (a.u.).

On to “TCTGAATTGGGCCCTGTCGCGAAGCCTGCCACCTGAATTGCGGAGTCACCTAGTGCAG”, for which the binding signal is 8400 fluorescence intensity (a.u.).

On to “CCCTTCCCCTCCTCGCGTCGCCTCTCCACTTCGCCTCTATCGGAGTCACCTAGTGCAG”, for which the binding signal is 9090 fluorescence intensity (a.u.).
